{"sequences": {"note": "Protein sequences, listed by entry. Tags and fused reporters are not part of them. Lines headed by an entry give the natural chain unless they say otherwise; changes in a name come on top.", "UniProt O75914": "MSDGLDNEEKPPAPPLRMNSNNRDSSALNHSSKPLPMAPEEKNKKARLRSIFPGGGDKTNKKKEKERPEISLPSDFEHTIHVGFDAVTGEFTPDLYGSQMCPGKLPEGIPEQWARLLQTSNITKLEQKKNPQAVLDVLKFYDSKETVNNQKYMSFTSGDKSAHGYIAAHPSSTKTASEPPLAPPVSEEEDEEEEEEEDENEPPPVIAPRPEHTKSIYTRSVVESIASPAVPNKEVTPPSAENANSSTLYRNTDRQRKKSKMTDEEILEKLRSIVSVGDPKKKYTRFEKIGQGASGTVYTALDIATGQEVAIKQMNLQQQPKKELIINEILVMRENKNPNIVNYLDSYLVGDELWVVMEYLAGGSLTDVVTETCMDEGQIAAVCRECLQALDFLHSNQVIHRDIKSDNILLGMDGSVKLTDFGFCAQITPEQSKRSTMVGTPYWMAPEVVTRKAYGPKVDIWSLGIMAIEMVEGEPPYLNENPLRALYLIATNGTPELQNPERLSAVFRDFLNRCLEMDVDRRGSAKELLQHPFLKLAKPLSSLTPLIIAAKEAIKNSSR"}, "source": "paper PMC3651266", "biological_target": "M5 truncated mutant of Pak3 (N-terminal regulatory domain alone) (UniProt O75914)", "assay": "co-IP; HEK293T cells co-transfected; lysis buffer 20 mM Tris-HCl pH 7.5, 100 mM NaCl, 0.1% NP-40, 0.5 mM EDTA; lysate with anti-Flag or anti-V5 at 4°C overnight, protein A-agarose, three washes; Western blotting with anti-Flag, anti-V5, anti-Tax", "note": "These are yes or no findings as the source states them, for the method shown. In cells and extracts the contact can be indirect. A result given as binding can be weak or reduced; the word gives no strength.", "data": [{"substance": "HTLV-1 transactivator protein Tax (from UniProt P03409 1-353)", "values": [{"measurement": "binding", "value": "binds"}]}]}
